Results from publication PMC7377239, “Cardiovascular Effects of Polychlorinated Biphenyls and Their Major Metabolites” (Environmental Health Perspectives, 2020).

Tested on: iPSC-CMs, iPSC-ECs and HUVECs phenotypes
Experiment: ToxPi 2.0 integration of POD values and physicochemical descriptors
Design: species or system human
Settings: for ToxPi_Score_Bioactivity: Biological Activity ToxPi, POD values of iPSC-CM, iPSC-EC and HUVEC phenotypes integrated; for ToxPi_Score_ChemBiol: Chemical-Biological Integration ToxPi, in vitro data plus physicochemical descriptors
How it was run: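 Phenotypic readouts in iPSC-cardiomyocytes, iPSC-endothelial cells and HUVECs were normalised to 0.5% DMSO vehicle and fitted to a four-parameter logistic model. POD set at one SD cutoff of vehicle means, with 100 μM assigned when no response. PODs and physicochemical descriptors combined in ToxPi 2.0 scores.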

[1] = HUVECs tube formation, 18 hr, scaled score from POD
[2] = HUVECs, 24 hr, scaled score from POD
[3] = iPSC-EC, 18 h, scaled POD score
[4] = iPSC-EC, 24 h, scaled POD score

Which results are given for `Clc1cc(Cl)c(-c2cc(Cl)c(Cl)cc2Cl)cc1Cl` [PCB153]?
cm.amp.avg.90min ToxPi (90min): 0.64; cm.amp.cv.90min ToxPi (90min): 0.22; cm.bpm.90min ToxPi (90min): 0.76; cm.cam.90min ToxPi (90min): 0.65; cm.decay.rise.90min ToxPi (90min): 0.55; cm.mii.90min ToxPi (90min): 0.00; cm.mito.90min ToxPi (90min): 0.66; cm.spacing.cv.90min ToxPi (90min): 0.0756; cm.tc.90min ToxPi (90min): 0.60; cm.amp.avg.24hrs ToxPi (24hrs): 0.00; cm.amp.cv.24hrs ToxPi (24hrs): 0.18; cm.bpm.24hrs ToxPi (24hrs): 0.46; cm.cam.24hrs ToxPi (24hrs): 0.29; cm.decay.rise.24hrs ToxPi (24hrs): 0.53; cm.mii.24hrs ToxPi (24hrs): 0.24; cm.mito.24hrs ToxPi (24hrs): 0.49; cm.spacing.cv.24hrs ToxPi (24hrs): 0.20; cm.tc.24hrs ToxPi (24hrs): 0.51; huvec.mtl.18hr ToxPi [1]: 0.36; huvec.tlps.18hr ToxPi [1]: 0.09; huvec.tta.18hr ToxPi [1]: 0.48; huvec.ttl.18hr ToxPi [1]: 1.00; huvec.cyto.24hr ToxPi [2]: 0.90; huvec.mito.24hr ToxPi [2]: 0.58; huvec.mitoint.24hr ToxPi [2]: 0.95; huvec.nma.24hr ToxPi [2]: 0.59; huvec.tc.24hrs ToxPi (HUVECs, 24 hrs, scaled score from POD): 0.90; endo.mtl.18hr ToxPi [3]: 1.00; endo.tlps.18hr ToxPi [3]: 0.63; endo.tta.18hr ToxPi [3]: 0.30; endo.ttl.18hr ToxPi [3]: 0.47; endo.cyto.24hr ToxPi [4]: 0.29; endo.mito.24hr ToxPi [4]: 0.29; endo.mitoint.24hr ToxPi [4]: 1.00; endo.nma.24hr ToxPi [4]: 0.08; endo.tc.24hrs ToxPi [4]: 0.12

How did the ToxPi_Score_Bioactivity turn out when `Clc1ccc(-c2ccccc2)cc1` [PCB 3, 4-chlorobiphenyl] was run?
The ToxPi_Score_Bioactivity was 0.3643.

And the ToxPi_Score_ChemBiol?
The ToxPi_Score_ChemBiol was 0.2773.

With `Clc1cccc(-c2cccc(Cl)c2)c1` [PCB 11, 3,3′-Dichlorobiphenyl] as the compound, how does the ToxPi_Score_Bioactivity read?
Its ToxPi_Score_Bioactivity is 0.3134.

And the ToxPi_Score_ChemBiol?
The ToxPi_Score_ChemBiol was 0.3058.

With `Clc1ccc(Cl)c(-c2cc(Cl)ccc2Cl)c1` [PCB 52, 2,2′,5,5′-tetrachlorobiphenyl] as the compound, how does the ToxPi_Score_Bioactivity read?
The ToxPi_Score_Bioactivity was 0.3123.

What about the ToxPi_Score_ChemBiol of the same compound?
Its ToxPi_Score_ChemBiol is 0.4297.

For `Clc1ccc(Cl)c(-c2c(Cl)ccc(Cl)c2Cl)c1` [PCB 95, 2,2′,3,5′,6-pentachlorobiphenyl], which ToxPi_Score_Bioactivity is on record?
The ToxPi_Score_Bioactivity was 0.3739.

What about the ToxPi_Score_ChemBiol of the same compound?
Its ToxPi_Score_ChemBiol is 0.5465.

With `Clc1ccc(-c2cc(Cl)c(Cl)c(Cl)c2)cc1Cl` [PCB 126, 3,3′,4,4′,5-pentachlorobiphenyl] as the compound, how does the ToxPi_Score_Bioactivity read?
Its ToxPi_Score_Bioactivity is 0.3891.

And the ToxPi_Score_ChemBiol?
The ToxPi_Score_ChemBiol was 0.5293.

For `Clc1cc(Cl)c(-c2cc(Cl)c(Cl)cc2Cl)cc1Cl` [PCB 153, 2,2′,4,4′,5,5′-hexachlorobiphenyl], which ToxPi_Score_Bioactivity is on record?
The ToxPi_Score_Bioactivity was 0.6135.

And the ToxPi_Score_ChemBiol?
The ToxPi_Score_ChemBiol was 0.7686.
